According to patent US20090119801A1, “Method for preserving cut flowers, cut flower preservation kit, method for manufacturing processed cut flowers, and processed cut flowers” (SUNTORY FLOWERS LIMITED, priority 2007, published 2009):

Tests used:
[1] = test system: petals of carnation "Moondust Velvet Blue"; assay: Immersion of carnation petals in organic solvents: replacement of tissue fluid, leach-out of pigment, contraction (Example 1); conditions: for contraction: contraction of petals; for contraction / replacement: immersed not less than one day; for leach-out of pigment: from amount of pigment remaining in petals, peak at around 540 nm, immersed about one day; for replacement: tissue fluid of petals replaced by the organic solvent
[2] = test system: petals of carnation "Moondust Velvet Blue"; assay: Immersion of carnation petals in candidate preservative solutions: contraction, color tone, color, shine (Example 2); conditions: for shine of petal / variation in color tone: non-uniform area / contraction B / color of petals / variation in color tone: after immersion not less than one day; for variation in color tone: non-uniform area: share of non-uniform area; for contraction A: contraction of petals on immersion in the organic solvent; for contraction B: contraction of petals while the organic solvent was volatilized from the petals; for variation in color tone: result in words; for suitable as the preservative solution: considering the color of the petals and the like

Q: With `C1COCCO1` [1,4-dioxane] as the compound, how does the contraction [1] read?
A: no

Q: And the leach-out of pigment [1]?
A: no

Q: What about the replacement [1] of the same compound?
A: yes

Q: What does the source list for `OCC(O)CO` [glycerin]?
A: shine of petal [2]: yes; variation in color tone: non-uniform area [2]: not greater than 20%; contraction A [2]: no; contraction B [2]: no

Q: How did the color of petals [2] turn out when `CCCC(O)C(CC)CO` (stereo not drawn) [2-ethyl-1,3-hexanediol] was run?
A: dark purple

Q: What about the shine of petal [2] of the same compound?
A: yes

Q: What about the “variation in color tone” value [2] of the same compound?
A: uniform color tone

Q: What about the “suitable as the preservative solution” value [2] of the same compound?
A: suitable

Q: And the “contraction A” value [2]?
A: no

Q: What about the “contraction B” value [2] of the same compound?
A: no

Q: What does the source list for `CCCCC(CC)COCCOCCO` (stereo not drawn) [2-[2-(2-ethylhexyloxy)ethoxy]ethanol]?
A: color of petals [2]: light purple; shine of petal [2]: yes; variation in color tone: non-uniform area [2]: not greater than 20%; suitable as the preservative solution [2]: suitable; contraction A [2]: no; contraction B [2]: no

Q: How did the contraction [1] turn out when `CC(C)=O` [acetone] was run?
A: no

Q: What about the leach-out of pigment [1] of the same compound?
A: no

Q: What about the replacement [1] of the same compound?
A: yes

Q: How did the contraction [1] turn out when `CO` [Methanol] was run?
A: yes

Q: What about the leach-out of pigment [1] of the same compound?
A: yes

Q: What about the replacement [1] of the same compound?
A: yes

Q: Which results are given for `CC(CCO)CCO` [3-methyl-1,5-pentanediol]?
A: color of petals [2]: purple; shine of petal [2]: yes; variation in color tone: non-uniform area [2]: not greater than 20%; suitable as the preservative solution [2]: suitable; contraction A [2]: no; contraction B [2]: no

Q: For `CCCC(=O)O` [n-butyric acid], which contraction [1] is on record?
A: no

Q: And the leach-out of pigment [1]?
A: no

Q: What about the replacement [1] of the same compound?
A: yes

Q: For 1-propanol, which contraction [1] is on record?
A: no

Q: And the leach-out of pigment [1]?
A: no

Q: What about the replacement [1] of the same compound?
A: yes

Q: `OCCO` [ethylene glycol] was tested. Which shine of petal [2] did it give?
A: yes

Q: And the “variation in color tone: non-uniform area” value [2]?
A: not greater than 20%

Q: And the “contraction A” value [2]?
A: no

Q: What about the “contraction B” value [2] of the same compound?
A: no

Q: For `CC(O)CC(C)(C)O` (stereo not drawn) [2-methyl-2,4-pentanediol], which color of petals [2] is on record?
A: dark purple

Q: And the “variation in color tone” value [2]?
A: uniform color tone

Q: And the “suitable as the preservative solution” value [2]?
A: suitable

Q: What about the “contraction A” value [2] of the same compound?
A: no

Q: And the “contraction B” value [2]?
A: no

Q: For `CCO` [ethanol], which contraction [1] is on record?
A: no

Q: What about the leach-out of pigment [1] of the same compound?
A: no

Q: And the replacement [1]?
A: yes

Q: How did the contraction [1] turn out when `CC(C)O` [2-propanol] was run?
A: no

Q: What about the replacement [1] of the same compound?
A: yes

Q: Which results are given for `CCCCC(CC)COCCO` (stereo not drawn) [2-(2-ethylhexyloxy)ethanol]?
A: color of petals [2]: purple; shine of petal [2]: no; variation in color tone: non-uniform area [2]: not greater than 20%; suitable as the preservative solution [2]: suitable; contraction A [2]: no; contraction B [2]: no
